# Data reported in PubChem BioAssay AID1508600 (Functional Genomics Laboratory (NCATS/FGL), 2020).
# About 3,700 (7%) of roughly 53,000 sequences were called active.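 How the source made its calls: active means gene knockdowns whose robust z-score for IL-1 alpha signal is at least 2 or at most -2, so actives lie on both sides; inactive means the rest.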 This is one part of the list.
# Assay: Components of the Cytosolic LPS Sensing Pathway: Gene Identification via Genome-wide siRNA Screen;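 further: robust z of the log signal after scaling to non-targeting control siRNA wells of the plate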
# Conditions: RAW264.7 macrophages, IL-1a HTRF, actives lie on both sides, screened at 100 nM (by protocol), cells primed 5 h with Pam3CSK4 first
# Outline: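 Supernatant IL-1a by HTRF from RAW264.7 cells primed with Pam3CSK4 (5 hours) and transfected with LipidA (24 hour) after 48h siRNA knockdown at 100 nM; cell viability checked with CellTiter-Glo.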
row,Sequence,z-score
1,GGACAUCAAAGAAAAGUCATT against Gpr171,inactive: 0.955
2,CGAUGUAAGGAAAGAAAGGTT against Cd14,inactive: -1.47
3,CAGCAAUGACCUGAUGUUATT against Klk1b21,inactive: -0.776
4,GGCGAACAGAGAGAGUUAGTT against 4921524J17Rik,inactive: 0.677
5,GGGCAUAUGAGAUUUAUUATT against Trappc2,inactive: -0.423
6,GGAGAUAAAAUUAUUCAGGTT against Erbin,inactive: -0.631
7,CCUUUAAACUUCAAGAAGCTT against Btk,inactive: -0.664
8,GGUAGUUCUGAAAAAGAAGTT against Slc7a11,inactive: 0.241
9,GGGCAUCUACUUUAAACUCTT against Mgat3,inactive: 0.0561
10,GGAAAUCAGGAGUAAAAGUTT against Eif2ak2,inactive: 0.0157
11,CCAUUAUAACACCUAUGCATT against Fgf7,inactive: -0.558
12,GCAGAAGUCUCGUAUCCAGTT against Arl6ip4,inactive: 0.337
13,GGGCUUUUAUAACAAAUGUTT against Zfand6,inactive: -0.196
14,CGGAUUCCUAAAAGUUAUATT against Nae1,inactive: 0.873
15,GGAAAUGUUUCUGUUCAUUTT against Nipsnap3b,inactive: 0.295
16,GCUCUCCUGUUACUUAUAUTT against Maoa,inactive: 1.2
17,GGCUAUGUGUUGGAGUUCUTT against Mybph,inactive: 0.757
18,GCUAUUAUUGUACGUGCAATT against Adgre1,inactive: 0.195
19,CCAAGAAAGACAGUAACUATT against 4930432K21Rik,inactive: -0.986
20,GGAUGUGAACCUAAGUACUTT against Nup107,inactive: -0.751
21,GCAGAUAUUUUUGUAAGCATT against Csmd1,inactive: -0.644
22,GGAGAUAAAGCUGACACUGTT against Zc3h18,inactive: -0.38

row,Sequence,z-score
1,GGCCUUUAAGAGUUUCCAUTT against A230052G05Rik,active: 2.1
2,GCAUUAAAGGAGUCCGAAUTT against Cpn1,inactive: -0.328
3,GGACUUGAUUAUCUACACUTT against Stk24,active: -2.24
4,GCUGUACGUUUGCACAUUCTT against Rc3h1,active: -2.87
5,GCGAUUCAUAACACCAUUGTT against Pole3,inactive: -1.43
6,CCUAGAUUAAAUACUCGGATT against Saxo2,inactive: 1.45
7,GGCAAUCAGCUUCACUGUGTT against Klk7,inactive: -0.446
8,GCAAAAUUCCUAGCCGUUUTT against Igf2bp2,inactive: -0.34
9,GGUGUUCUCGGUUUGAUCCTT against Ppm1k,inactive: -1.01
10,GGAAAGGACAUUGUUGUUCTT against Psma7,inactive: -0.934
11,CCUCAUCUAUGCAUGUUGUTT against Olfr1394,inactive: -1.86
12,GGUUAAAAUGUCAUCCUUUTT against Trerf1,inactive: -0.0853
13,GGGAUAUGACAGAACCAUATT against Olfr1390,inactive: 0.0369
14,CCUUCCUAAUGAUUGCCAATT against Grm7,inactive: -0.755
15,CCAAUUUUCAAGAUCGGUCTT against Pakap,inactive: 0.347
16,GGAUGAACCCAGAAAGAUGTT against Gdf5,inactive: 0.584
17,UACUCGUGGUGUUUGCAAGTT against Olfr1154,inactive: 0.873
18,GCACAGUACCAUAACGGCUTT against Nampt,active: -2.06
19,GGACUCUCAACUUCCAAUGTT against Spire2,inactive: 0.743
20,GCAACUAUUGUCUAAAUGCTT against Prpf40a,inactive: -0.611
21,GGAGAGUGAGAAGAUCUUGTT against Ecel1,inactive: -0.163
22,CGGAGUCCAACCCAUAAAUTT against Blzf1,inactive: 0.184

row,Sequence,z-score
1,CAGAAUUCAGAUAAUCUUGTT against Defb22,inactive: 1.06
2,GCAUGAAUGUUCUGAGUUCTT against Sh3bgrl,inactive: 0.593
3,GCGAUGACCAAAAAUAUUGTT against Tmc1,inactive: -0.0131
4,GCCUUUAAUUUUGACAACUTT against Vmn1r211,inactive: 1.24
5,GGAGAUCAAAGAAUCUUGGTT against Arhgap45,active: -4.45
6,GGUUCUGGAAGGACAGGAATT against Samd14,inactive: 0.064
7,GGUGUCCAUGCUAGCUGUATT against Best2,active: 2.97
8,CGCUAUGAGGCAGCUAAUUTT against Psma6,active: -2.27
9,GGGCUCUCAAUAUUACCUCTT against Car11,inactive: -1.38
10,GCUUUUCACAUGAUGUGUUTT against Klrb1a,inactive: -0.5
11,GCCUGCUUAUAUAGGGUGUTT against Tmed9,inactive: -1.83
12,GGUCGCUACAAGAUGACUUTT against Hapln4,inactive: 0.289
13,CCACUUCCUUACGAUUGAUTT against Aadacl4fm1,active: -2.09
14,GGUGACUCUACUGGAUUUUTT against Coq8b,inactive: -0.395
15,GGCUGACAGAAGGAUGCUCTT against Rps27,inactive: 0.213
16,CCCUACUGAGAUCUUAGAUTT against Pole,inactive: -0.0438
17,GGCUCAAAACAGCAAGAUCTT against Angptl4,inactive: -0.0982
18,GCUCAACACUCGACAUUGUTT against Rrm1,active: -2.56
19,GGUACAGAAAAUCUCUAUGTT against Ccdc96,inactive: 0.59
20,GGCUGUUGAACUUAAUCCCTT against Tomm70a,active: -2.25
21,GGAUGCUUACUUACCUCAUTT against Tas2r107,inactive: -1.06
22,GCAAGACUCAGAGAGGUGGTT against A730020M07Rik,inactive: -1.34

row,Sequence,z-score
1,GGAACUGCUCGUAGGAAGATT against Btf3,inactive: -0.337
2,GGAGCUGAGCAGUGAUGAATT against Snx29,active: -2.08
3,GCCAUGAAUAUUGUGCGAATT against Hikeshi,inactive: 0.465
4,GGCCUACAAUACCUCCAUUTT against Grid2ip,inactive: 1.12
5,CCGAGAUUGCCUGUUUGGUTT against Rnf144b,active: 2.08
6,GGACUCCUAUCCAUCUAUGTT against Panx3,inactive: -0.571
7,CCCUAAGGUGGCAGAAAUCTT against Atp1a2,inactive: -1.49
8,GGUUUGAGAGUGGUAAUCUTT against Agbl3,active: 2.17
9,GGCCAUAUUAAGUAUGGAGTT against Fam118a,inactive: -0.34
10,GGCCUUUCAAUGUUACAGATT against Mpo,inactive: -0.186
11,GCUGAAAGGAAUGUGCUCATT against Hspa8,inactive: -1.57
12,GGUGGUGAUAAUUGUUUUUTT against Olfr1497,inactive: -1.02
13,GGCAGCUCUGACUUUAUAATT against Klhdc3,inactive: -1.63
14,GGCUCUGGCUAAGUACUUGTT against Cenpb,inactive: -0.943
15,GGGACAGUUGACUUUUUAUTT against Cntn4,inactive: 0.147
16,GCGGUAUGAUCUAGUAGUGTT against Zfp672,inactive: 0.0856
17,GGCAAAUUAAAGACAAAUCTT against 9530009G21Rik,inactive: 1.81
18,UUGAAAUGCCUCGUUCUUUTT against Wfdc13,inactive: 0.395
19,GGACCAGGUUUGUUUUUUATT against Stom,inactive: 1.03
20,GGUUUGAAGUGUUGACAUUTT against Fam126a,inactive: -0.474
21,GGAAUAAAGGAACUGAAUCTT against Plek,inactive: -0.235
22,GCUCAACUUCUGAAUUAUATT against Enpep,active: 2.64

# Random excerpt: 4 entries already listed
row,Sequence,z-score
13,GGCAGCUCUGACUUUAUAATT against Klhdc3,inactive: -1.63
12,GGUGGUGAUAAUUGUUUUUTT against Olfr1497,inactive: -1.02
8,GGUUUGAGAGUGGUAAUCUTT against Agbl3,active: 2.17
17,GGCAAAUUAAAGACAAAUCTT against 9530009G21Rik,inactive: 1.81

# Further entries:

row,Sequence,z-score
1,GGACUUUUCUCUCCACCACTT against Slc22a26,inactive: -1.43
2,GGCUUUUCUGCCAUUUAUGTT against Sox18,inactive: 0.23
3,GGUGAAAAUCAAGCUGAAUTT against Smarca2,inactive: 1.36
4,CCUUCAUAUCCCAGUAAAATT against Tmem230,inactive: -1.48
5,UCGGGAAAUGAAAUGUUGCTT against Crh,inactive: -0.887
6,AGUCUCACCAGCAACGCACTT against 4930451E10Rik,inactive: -0.305
7,GGGAAGUUUGGUUCUUUGGTT against Msn,inactive: 0.749
8,GCAAAAGGAAACGAUCUCATT against Fbxo43,inactive: -0.302
9,GGGUUAGAUUUAGUCAAUGTT against Haspin,inactive: 0.969
10,GGCCAGAUGCAGUCUGUGUTT against Slx1b,inactive: 0.118
11,CCUACGAAGAAGAAGAGAUTT against Zbtb7b,inactive: 0.342
12,GCAGCAGUUUUGUAGACAUTT against Fbxo25,inactive: 0.0918
13,GGAAGAACUUCUGUUCAUGTT against Krt18,inactive: 0.634
14,GCUGGUGUGUAACAUCAAUTT against Fut8,inactive: 0.246
15,GGACAGUCGAAUUUCAGUCTT against Olfr417,inactive: 1.48
16,CCCUUCUCCACCUGAGAGUTT against Orm3,active: -2.25
17,CCACUGAAGUUUUCAUUCUTT against Olfr1055,inactive: 0.355
18,GGUUGAAUCAGAAAAAUUCTT against Gbp3,inactive: -1.08
